Test results taken from PubChem BioAssay AID588795 (National Center for Advancing Translational Sciences (NCATS), 2011).
This list holds what a sample rich in hits left over. The source made the active and inactive calls. Calls come from the whole dose curve; as a rule, active = well fitted inhibition curve with a large enough effect; inconclusive = small, poorly fitted or top-dose-only effect; inactive = no such curve, though single readings can be large or run the other way.

The chains behind the UniProt entries cited, without tags or fusion partners.
UniProt P39748, whole entry, looked up: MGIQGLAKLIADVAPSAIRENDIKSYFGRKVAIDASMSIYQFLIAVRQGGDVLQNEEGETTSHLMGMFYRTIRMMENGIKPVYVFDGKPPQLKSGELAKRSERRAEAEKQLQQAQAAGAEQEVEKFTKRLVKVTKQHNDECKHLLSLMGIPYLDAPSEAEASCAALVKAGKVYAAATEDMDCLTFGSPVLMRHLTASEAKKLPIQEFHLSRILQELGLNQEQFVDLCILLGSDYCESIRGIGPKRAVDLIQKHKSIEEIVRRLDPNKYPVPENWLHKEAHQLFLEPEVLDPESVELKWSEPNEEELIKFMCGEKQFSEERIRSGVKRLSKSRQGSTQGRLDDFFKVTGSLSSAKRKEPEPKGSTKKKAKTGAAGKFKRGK

These compounds were tested against Flap endonuclease 1 (Homo sapiens) (UniProt P39748) (assay: qHTS Assay for the Inhibitors of Human Flap endonuclease 1 (FEN1).). Conditions: Recombinant FEN1 flap cleavage, fluorescence, 15 min; at 114 µM (top of the series).
Excerpt: The major human flap endonuclease FEN1 is an efficient structure-specific enzyme that recognizes and cleaves a 5'-unannealed DNA flap. It belongs to the RAD2 family nucleases, which are involved in DNA metabolism and are highly conserved in prokaryotes and eukaryotes. FEN1 is a key enzyme in DNA replication, repair and maintenance of genomic stability. 5'-flap removal by FEN1 is critical for Okazaki fragment processing during lagging strand DNA synthesis, long-patch base excision repair (LP BER), and regulating or facilitating recombination events. […] Deletion of the yeast FEN1 gene, i.e. rad27, results in an increased frequency of short DNA (3-32 bp) repeats, micro- and mini-satellite formation, trinucleotide repeat expansion, spontaneous recombination events, and a severe growth defect in association with cell cycle arrest in late S/G2 phase. […]
Three uL of reagents (buffer in column 3 and 4 as negative control and 10 nM FEN1 in columns 1, 2, and 5-48) were dispensed into 1,536-well black solid-bottomed plate. […] The plates were then incubated for 15 min at room temperature, and 1 uL substrate (50 nM final concentration) were added to start the reaction read twice at 0 min read and 15 min on ViewLux reader. […]
% is set by controls: 0 for no effect and ±100 for the full control effect.
Note: nearly all actives have a fitted effect of over 65% in size.

| Structure (SMILES) | activity change, negative = inhibition |
| --- | --- |
| CN1[C@@H]2CC[C@H]1CC(OC(=O)C(O)c1ccccc1)C2 (stereo partly specified) | inactive: 3.27% |
